# In PubChem BioAssay AID504834 (National Center for Advancing Translational Sciences (NCATS), 2011):
# Hit rate of the full screen: of about 320,000 compounds, about 22,000 (6.9%) were called active. The inconclusive results got no clear call from the source; some entries with a clear call stand among them for comparison. Calls follow the shape of the dose curve; as a rule, active = well fitted inhibition curve with a large enough effect; inconclusive = small, poorly fitted or top-dose-only effect, or another doubt; inactive = no such curve, though single readings can be large or run the other way. Potencies of inconclusive entries are doubtful fits and often do not repeat.
# Assay: Primary qHTS for delayed death inhibitors of the malarial parasite plastid, 96 hour incubation
# Conditions: P. falciparum luciferase reporter growth; series mostly up to 28.7 µM
# Method in brief: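 Parasite growth measured via integrated firefly luciferase reporter in P. falciparum. Infected erythrocytes at 2% hematocrit, 0.05% parasitemia final were treated 96 hours at 37 C under 5% CO2, and luminescence was read.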
# Potency is read from the fitted curve at half-maximal effect.
row,SMILES,Potency
1,O=C(NC(=S)N1CCN(C(c2ccccc2)c2ccccc2)CC1)c1ccc(S(=O)(=O)N2CCOCC2)cc1,"inconclusive: 2.62 µM [inhibitor, full curve]"
2,COc1ccc(OC)c(NC(=O)CSC2=C(C#N)C(c3ccco3)C3=C(CCCC3=O)N2)c1 (centres undefined),inactive
3,O=C(COC(=O)/C=C/c1ccccc1)NNC(=O)c1ccccc1F,inactive
4,CC(C)C[C@H](NC(=O)c1nc[nH]c1C(=O)NCc1ccc(CNC(=O)OC(C)(C)C)cc1)C(=O)OC(C)(C)C,"inconclusive: 2.62 µM [inhibitor, full curve, poor fit]"
5,O=C(Oc1ccc(Cl)c2cccnc12)N1CCOCC1,"inconclusive: 0.0033 µM [inhibitor, full curve, poor fit]"
6,Cc1ccc(C(=O)CN(C(=O)c2ccc(Cl)c(Cl)c2)N2C(=O)C3C4C=CC(C4)C3C2=O)cc1 (centres undefined),inactive
7,CCN1C(=O)[C@H]2[C@@H](c3ccc(C)cc3)N3C(=O)N(c4ccc(C)cc4)C(=O)[C@@]3(Cc3ccccc3)[C@H]2C1=O,"inconclusive: 1.65 µM [inhibitor, partial curve, poor fit]"
8,c1nc(N2CCC3(CC2)OCCO3)c2c3c(sc2n1)CCCC3,"inconclusive: 18.5 µM [inhibitor, single point]"
9,COc1ccc(-n2c(Cn3c(=O)sc4ccccc43)nnc2SCC(N)=O)cc1,inactive
10,CCCn1c(N)c(C(=O)CSc2nnc(Cc3cccs3)n2C2CC2)c(=O)n(C)c1=O,active: 4.15 µM
11,Cc1ccc(NC(=S)NN(C)c2cc(C)nc(C)n2)cc1,inactive
12,CCCCCCCNC1=CC(=O)CC(c2ccccc2)C1 (centres undefined),"inconclusive: 18.5 µM [inhibitor, single point]"
13,Cc1ccccc1-c1noc(C23CC4CC(CC(C4)C2)C3)n1,inactive
14,Cc1[nH]nc2ncc(C(=O)c3ccccc3O)cc12,"inconclusive: 18.5 µM [inhibitor, single point]"
15,Brc1ccc2[nH]c3nc(SCCN4CCOCC4)nnc3c2c1,inactive
16,Cc1ccc(NS(=O)(=O)c2csc(C(N)=O)c2)c(C)c1,active: 4.15 µM
17,Cc1cc(CN(C)C(=O)CCc2nnc(Cc3cccc(C(F)(F)F)c3)o2)on1,"inconclusive: 18.5 µM [inhibitor, single point]"
18,O=C(Nc1ccc(Cl)c(Cl)c1)C1C2C=CC3(O2)C1C(=O)N(CCN1CCCCC1)C3C(=O)NC1CCCCC1 (centres undefined),"inconclusive: 16.5 µM [inhibitor, partial curve, poor fit]"
19,O=C(NCC1CCCO1)c1cc(-c2ccccc2F)no1 (centres undefined),inactive
20,O=C(Nc1ccncc1)c1cc(S(=O)(=O)N2CCN(c3ccccc3)CC2)ccc1Cl,"inconclusive: 10.4 µM [inhibitor, single point]"
21,C=CCN(CC(=O)NCc1ccccc1)C(=O)c1csnn1,"inconclusive: 13.1 µM [inhibitor, single point]"
22,O=C(Nc1nc2ccc(Cl)cc2s1)[C@@H]1CCCN1C(=O)c1cccs1,"inconclusive: 18.5 µM [inhibitor, single point]"

# Taken from above, 2 compounds:
row,SMILES,Potency
9,COc1ccc(-n2c(Cn3c(=O)sc4ccccc43)nnc2SCC(N)=O)cc1,inactive
10,CCCn1c(N)c(C(=O)CSc2nnc(Cc3cccs3)n2C2CC2)c(=O)n(C)c1=O,active: 4.15 µM

# (further entries)

row,SMILES,Potency
1,O=C(Nc1cccc2c1CCCC2)c1ccccc1F,"inconclusive: 13.1 µM [inhibitor, single point]"
2,CC1CCCN(C(=O)/C(=C/c2ccco2)NC(=O)c2ccccc2)C1 (centres undefined),inactive
3,CCS(=O)(=O)N1N=C(c2cccs2)CC1c1cc2cc(C)ccc2nc1Cl (centres undefined),"inconclusive: 14.7 µM [inhibitor, partial curve, poor fit]"
4,COCCN1C(=O)c2ccccc2C(C(=O)Nc2ccc3c(c2)OCCO3)C1c1ccc(F)cc1 (centres undefined),"inconclusive: 18.5 µM [inhibitor, single point]"
5,O=C(CN(CC1CCCO1)C(=O)CCC(=O)Nc1nccs1)NCc1ccccc1 (centres undefined),"inconclusive: 18.5 µM [inhibitor, single point]"
6,CC(C)N(C(=O)Cn1c(-c2ccccc2Cl)nc2ccccc21)c1ccccc1,"inconclusive: 14.7 µM [inhibitor, single point]"
7,Cc1ccc(C)c(N2CCN(C(=O)Nc3ccc4c(c3)N(C)C(=O)CS4)CC2)c1,inactive
8,NC1=NC(c2ccccc2Cl)n2c(nc3ccccc32)N1 (centres undefined),"inconclusive: 0.147 µM [inhibitor, full curve, poor fit]"
9,O=C(COC(=O)Cc1ccc(Br)cc1)NC1CC1,inactive
10,COc1ccc(CC2(CO)CCN(Cc3c(C)nn(C(C)C)c3C)CC2)cc1,"inconclusive: 0.415 µM [inhibitor, full curve, poor fit]"
11,Cc1ccc(C)c(S(=O)(=O)N2CCCCC2CCNC(=O)C(=O)NCc2cccnc2)c1 (centres undefined),"inconclusive: 18.5 µM [inhibitor, single point]"
12,CCn1ccnc1CNC(=O)CC1C(=O)NCCN1CC(c1ccccc1)c1ccccc1 (centres undefined),"inconclusive: 13.1 µM [inhibitor, single point]"
13,COc1cc(SC)ccc1C(=O)N1CCN(c2ccccc2F)CC1,"inconclusive: 18.5 µM [inhibitor, single point]"
14,CCOC(=O)c1cccc(NC(=O)Cn2c(CC(=O)NC)nc3ccccc32)c1,"inconclusive: 8.28 µM [inhibitor, partial curve]"
15,Cc1ccc(C)c(C(=O)COc2ccc(C)nc2[N+](=O)[O-])c1,"inconclusive: 18.5 µM [inhibitor, single point]"
16,C/C(=N\Nc1ccc(C(=O)O)cc1)c1nc2ccccc2n1C,"inconclusive: 11.7 µM [inhibitor, single point]"
17,CCOC(=O)c1ccc(N/N=C/c2cc(Br)cc([N+](=O)[O-])c2O)cc1,inactive
18,CC1=C(C(=O)OC(C)C)C(c2ccccc2)NC(=O)N1C (centres undefined),active: 9.28 µM
19,CC(C)Cn1c(SCC(=O)N2CCCCC2)nc2ccccc2c1=O,"inconclusive: 18.5 µM [inhibitor, single point]"
20,Cc1ccc(NC(=O)c2cccnc2C(=O)O)nc1,inactive
21,O=c1c2ccccc2nnn1CSc1ncnc2ccccc12,"inconclusive: 1.17 µM [inhibitor, partial curve, poor fit]"
22,Cn1ccnc1C(OC(=O)c1ccccc1)C(F)(F)F (centres undefined),inactive
